Measured values as given in the supplement of paper PMC10849652.
This is one part of the list.

Sequences of proteins named here, by UniProt entry; tags and fusion partners are left off. A change or cut given only in a name is not applied to a line headed by its entry.
UniProt O95822: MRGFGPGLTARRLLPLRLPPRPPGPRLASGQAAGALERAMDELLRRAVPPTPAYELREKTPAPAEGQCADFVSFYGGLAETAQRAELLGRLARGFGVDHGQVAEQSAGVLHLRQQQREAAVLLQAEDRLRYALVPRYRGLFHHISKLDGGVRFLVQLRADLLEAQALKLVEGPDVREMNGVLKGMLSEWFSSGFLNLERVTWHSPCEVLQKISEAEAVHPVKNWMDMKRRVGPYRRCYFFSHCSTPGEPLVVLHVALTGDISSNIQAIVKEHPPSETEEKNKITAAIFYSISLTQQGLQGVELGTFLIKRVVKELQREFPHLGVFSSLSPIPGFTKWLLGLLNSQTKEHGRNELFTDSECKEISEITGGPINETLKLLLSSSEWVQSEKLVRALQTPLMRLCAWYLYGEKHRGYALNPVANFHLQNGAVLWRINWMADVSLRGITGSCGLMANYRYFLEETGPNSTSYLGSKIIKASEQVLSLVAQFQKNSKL
UniProt Q9UNW1: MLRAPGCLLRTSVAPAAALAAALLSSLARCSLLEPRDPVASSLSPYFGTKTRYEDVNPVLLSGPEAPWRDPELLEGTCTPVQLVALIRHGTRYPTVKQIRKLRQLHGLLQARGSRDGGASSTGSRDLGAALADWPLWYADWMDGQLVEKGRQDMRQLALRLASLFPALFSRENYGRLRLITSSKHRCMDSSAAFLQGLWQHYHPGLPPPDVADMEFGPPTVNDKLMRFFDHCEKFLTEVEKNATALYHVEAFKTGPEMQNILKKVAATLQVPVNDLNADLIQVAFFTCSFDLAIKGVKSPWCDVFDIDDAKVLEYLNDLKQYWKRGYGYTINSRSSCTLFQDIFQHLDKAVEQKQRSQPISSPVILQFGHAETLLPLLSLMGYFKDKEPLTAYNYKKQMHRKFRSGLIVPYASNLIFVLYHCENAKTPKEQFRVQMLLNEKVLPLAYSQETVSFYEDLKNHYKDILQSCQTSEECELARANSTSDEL
UniProt Q7RTP6, whole entry, looked up: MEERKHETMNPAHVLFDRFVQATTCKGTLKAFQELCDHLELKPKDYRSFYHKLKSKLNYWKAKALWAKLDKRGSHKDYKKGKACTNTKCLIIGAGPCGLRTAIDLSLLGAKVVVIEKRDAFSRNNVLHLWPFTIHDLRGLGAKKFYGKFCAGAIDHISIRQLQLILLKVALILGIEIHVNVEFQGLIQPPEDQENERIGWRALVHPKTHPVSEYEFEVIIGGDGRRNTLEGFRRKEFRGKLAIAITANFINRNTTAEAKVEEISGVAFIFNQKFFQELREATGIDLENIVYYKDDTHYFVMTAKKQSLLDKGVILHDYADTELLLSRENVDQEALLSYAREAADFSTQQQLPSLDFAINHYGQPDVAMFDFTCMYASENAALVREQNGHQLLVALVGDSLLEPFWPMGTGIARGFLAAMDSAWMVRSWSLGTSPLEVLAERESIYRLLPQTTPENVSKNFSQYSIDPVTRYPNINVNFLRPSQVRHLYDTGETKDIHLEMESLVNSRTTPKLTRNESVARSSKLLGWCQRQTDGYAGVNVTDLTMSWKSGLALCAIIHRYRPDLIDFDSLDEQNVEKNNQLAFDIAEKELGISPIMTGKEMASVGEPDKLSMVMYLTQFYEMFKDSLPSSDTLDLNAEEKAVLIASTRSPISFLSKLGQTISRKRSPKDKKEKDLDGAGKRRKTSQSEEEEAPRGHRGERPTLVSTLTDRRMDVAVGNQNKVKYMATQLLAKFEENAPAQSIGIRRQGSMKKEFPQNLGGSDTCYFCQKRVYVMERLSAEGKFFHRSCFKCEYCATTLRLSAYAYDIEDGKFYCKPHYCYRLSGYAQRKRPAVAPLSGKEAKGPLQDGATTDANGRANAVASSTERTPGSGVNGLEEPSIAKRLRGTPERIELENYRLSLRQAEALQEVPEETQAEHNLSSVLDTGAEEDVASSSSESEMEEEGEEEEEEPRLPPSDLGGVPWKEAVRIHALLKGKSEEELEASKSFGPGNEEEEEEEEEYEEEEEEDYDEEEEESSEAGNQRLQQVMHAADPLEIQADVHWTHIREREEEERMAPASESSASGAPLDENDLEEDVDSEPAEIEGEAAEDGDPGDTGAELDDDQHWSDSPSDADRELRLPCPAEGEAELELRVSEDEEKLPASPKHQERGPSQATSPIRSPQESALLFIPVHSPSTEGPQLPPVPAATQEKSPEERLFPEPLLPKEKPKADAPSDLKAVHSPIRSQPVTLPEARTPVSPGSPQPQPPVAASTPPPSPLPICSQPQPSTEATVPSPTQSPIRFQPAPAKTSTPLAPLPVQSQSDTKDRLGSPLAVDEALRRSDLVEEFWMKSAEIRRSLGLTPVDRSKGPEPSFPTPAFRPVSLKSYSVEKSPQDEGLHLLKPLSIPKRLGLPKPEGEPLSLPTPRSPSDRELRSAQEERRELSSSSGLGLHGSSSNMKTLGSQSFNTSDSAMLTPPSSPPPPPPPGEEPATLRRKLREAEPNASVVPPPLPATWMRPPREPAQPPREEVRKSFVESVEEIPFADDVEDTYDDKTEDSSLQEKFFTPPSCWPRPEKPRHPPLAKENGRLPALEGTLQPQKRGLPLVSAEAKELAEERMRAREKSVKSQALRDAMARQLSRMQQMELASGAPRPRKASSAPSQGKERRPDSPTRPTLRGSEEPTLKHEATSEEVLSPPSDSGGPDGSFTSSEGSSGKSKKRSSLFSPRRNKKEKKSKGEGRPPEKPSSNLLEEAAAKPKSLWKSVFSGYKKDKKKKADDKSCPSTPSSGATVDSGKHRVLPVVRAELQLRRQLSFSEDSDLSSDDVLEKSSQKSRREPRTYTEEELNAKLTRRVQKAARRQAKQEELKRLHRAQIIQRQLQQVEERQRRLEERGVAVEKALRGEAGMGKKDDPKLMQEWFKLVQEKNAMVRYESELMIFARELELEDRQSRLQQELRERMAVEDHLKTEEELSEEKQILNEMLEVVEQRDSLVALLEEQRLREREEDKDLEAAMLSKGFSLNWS
UniProt Q03111: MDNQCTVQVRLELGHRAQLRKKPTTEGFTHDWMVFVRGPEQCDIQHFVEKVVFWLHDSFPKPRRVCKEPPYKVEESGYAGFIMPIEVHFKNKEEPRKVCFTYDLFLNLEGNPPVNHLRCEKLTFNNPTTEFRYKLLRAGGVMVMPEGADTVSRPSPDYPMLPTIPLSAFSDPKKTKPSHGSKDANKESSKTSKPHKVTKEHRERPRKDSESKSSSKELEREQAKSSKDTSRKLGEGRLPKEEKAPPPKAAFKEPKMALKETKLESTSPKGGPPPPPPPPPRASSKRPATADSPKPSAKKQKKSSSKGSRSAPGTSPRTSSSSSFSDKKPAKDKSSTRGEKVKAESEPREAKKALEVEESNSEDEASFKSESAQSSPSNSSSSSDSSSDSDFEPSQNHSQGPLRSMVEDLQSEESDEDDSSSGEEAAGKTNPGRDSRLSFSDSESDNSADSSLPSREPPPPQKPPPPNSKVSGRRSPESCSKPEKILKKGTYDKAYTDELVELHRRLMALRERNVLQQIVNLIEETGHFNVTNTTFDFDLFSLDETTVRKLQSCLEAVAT
UniProt Q7L9L4: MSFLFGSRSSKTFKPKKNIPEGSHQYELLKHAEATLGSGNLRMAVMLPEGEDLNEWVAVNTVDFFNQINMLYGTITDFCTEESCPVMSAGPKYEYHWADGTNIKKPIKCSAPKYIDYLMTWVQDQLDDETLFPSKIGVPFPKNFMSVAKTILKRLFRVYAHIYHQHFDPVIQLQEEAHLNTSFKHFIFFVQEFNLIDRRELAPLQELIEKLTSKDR
UniProt Q8N108: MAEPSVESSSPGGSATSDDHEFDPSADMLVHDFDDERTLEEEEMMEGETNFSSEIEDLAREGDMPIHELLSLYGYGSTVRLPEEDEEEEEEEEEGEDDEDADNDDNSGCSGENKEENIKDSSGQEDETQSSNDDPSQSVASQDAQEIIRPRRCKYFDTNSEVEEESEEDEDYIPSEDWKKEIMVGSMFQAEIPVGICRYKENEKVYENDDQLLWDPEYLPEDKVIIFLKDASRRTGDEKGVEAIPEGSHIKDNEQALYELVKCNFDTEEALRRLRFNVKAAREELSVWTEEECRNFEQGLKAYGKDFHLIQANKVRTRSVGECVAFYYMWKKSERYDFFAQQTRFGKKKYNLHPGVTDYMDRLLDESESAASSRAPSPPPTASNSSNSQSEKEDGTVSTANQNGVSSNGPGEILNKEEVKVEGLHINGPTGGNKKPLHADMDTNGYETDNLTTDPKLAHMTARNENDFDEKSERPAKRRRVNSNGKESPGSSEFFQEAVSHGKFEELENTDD

Assays:
Assay in all cases: log2 fold change, soluble protein after heating vs DMSO (PISA); higher = thermal stabilisation; K562 cells, 10 uM, 30 min; active = over 0.2 and 3.5 SD of the protein, either way, in both replicates (recomputed)
bafetinib = compound: Cc1ccc(NC(=O)c2ccc(CN3CC[C@H](N(C)C)C3)c(C(F)(F)F)c2)cc1Nc1nccc(-c2cncnc2)n1 [bafetinib]
How it was run: (§1)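 For each measurement, 10 μM compound was applied for 30 min to K562 cells at 2×10^6 cells/mL. Aliquots were heated for 3 min across 48°C-58°C, pooled, and extracted in PBS with 0.5% NP-40 at 4°C; the supernatant after 21,000xg for 90 min was soluble protein. This was quantified by TMTpro 16plex LC-MS/MS with channel sums equalised, and thermal stability was reported relative to control samples from duplicates, on a log2 fold-change scale.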

[1] = compound: Cc1cccc(CC(=O)N2CCc3c2ccc(-c2cn(C)c4ncnc(N)c24)c3F)n1
How it was run: as §1

nilotinib = compound: Cc1cn(-c2cc(NC(=O)c3ccc(C)c(Nc4nccc(-c5cccnc5)n4)c3)cc(C(F)(F)F)c2)cn1 [nilotinib]
How it was run: as §1

[2] = compound: Cc1nc(Nc2n[nH]c3c2CN(C(=O)N[C@H](CN(C)C)c2ccccc2)C3(C)C)c2sccc2n1
How it was run: as §1

dasatinib = compound: Cc1nc(Nc2ncc(C(=O)Nc3c(C)cccc3Cl)s2)cc(N2CCN(CCO)CC2)n1 [dasatinib]
How it was run: as §1

[3] = compound: Cc1ncc(-c2ccnc(Nc3ccc(S(C)(=O)=O)cc3)n2)n1C(C)C
How it was run: as §1

[4] = compound: Cn1cc(-c2ccc3c(c2)CCN3C(=O)Cc2cccc(C(F)(F)F)c2)c2c(N)ncnc21
How it was run: as §1

[5] = compound: Cn1cc(-c2ccc3nnc(C(F)(F)c4ccc5ncccc5c4)n3n2)cn1
How it was run: as §1

tipifarnib = compound: Cn1cncc1[C@@](N)(c1ccc(Cl)cc1)c1ccc2c(c1)c(-c1cccc(Cl)c1)cc(=O)n2C [tipifarnib]
How it was run: as §1

mubritinib = compound: FC(F)(F)c1ccc(/C=C/c2nc(COc3ccc(CCCCn4ccnn4)cc3)co2)cc1 [mubritinib]
How it was run: as §1

[6] = compound: NC(=O)Nc1cc(-c2cccc(F)c2)sc1C(=O)N[C@H]1CCCNC1
How it was run: as §1

[7] = compound: NC(=O)c1cnc(N[C@@H]2CCCC[C@@H]2N)nc1Nc1cccc(-n2nccn2)c1
How it was run: as §1

[8] = compound: NC1(c2ccc(-c3nc4ccn5c(=O)[nH]nc5c4cc3-c3ccccc3)cc2)CCC1
How it was run: as §1

[9] = compound: NCC(=O)Nc1ccc(-n2nc(C(F)(F)F)cc2-c2ccc3c(ccc4ccccc43)c2)cc1
How it was run: as §1

entinostat = compound: Nc1ccccc1NC(=O)c1ccc(CNC(=O)OCc2cccnc2)cc1 [entinostat]
How it was run: as §1

vorinostat = compound: O=C(CCCCCCC(=O)Nc1ccccc1)NO [vorinostat]
How it was run: as §1

citarinostat = compound: O=C(CCCCCCNC(=O)c1cnc(N(c2ccccc2)c2ccccc2Cl)nc1)NO [citarinostat]
How it was run: as §1

silmitasertib = compound: O=C(O)c1ccc2c(c1)nc(Nc1cccc(Cl)c1)c1ccncc12 [silmitasertib]
How it was run: as §1

[10] = compound: O=C1NC(=O)C(c2cnc3ccccn23)=C1c1cn2c3c(cc(F)cc13)CN(C(=O)N1CCCCC1)CC2
How it was run: as §1

[11] = compound: c1cc(OCCN2CCCCC2)cc(-c2n[nH]c3ccc(-c4nnc[nH]4)cc23)c1
How it was run: as §1

Measured: log2 fold change

MLYCD (UniProt O95822)
inactive: bafetinib 0.089 | [1] -0.201 | nilotinib -0.03 | [2] 0.013 | dasatinib -0.048 | [3] -0.049 | [4] 0.003 | [5] 0.08 | tipifarnib 0.04 | mubritinib 0.005 | [6] 0.082 | [7] -0.024 | [8] -0.041 | [9] -0.044 | entinostat -0.016 | vorinostat 0.025 | citarinostat 0.071 | silmitasertib -0.066 | [10] 0.056 | [11] 0.053

MINPP1 (UniProt Q9UNW1)
inactive: bafetinib 0.018 | [1] 0.049 | nilotinib 0.039 | [2] -0.006 | dasatinib 0.053 | [3] 0.013 | [4] -0.044 | [5] 0.01 | tipifarnib -0.065 | mubritinib 0.012 | [6] -0.001 | [7] -0.021 | [8] -0.031 | [9] 0.063 | entinostat 0.002 | vorinostat -0.013 | citarinostat 0.092 | silmitasertib 0.032 | [10] -0.004 | [11] -0.003

MRPL21 (UniProt Q7Z2W9)
inactive: bafetinib 0.199 | [1] 0.052 | nilotinib -0.116 | [2] 0.186 | dasatinib -0.001 | [3] -0.018 | [4] -0.089 | [5] -0.042 | tipifarnib 0.17 | mubritinib 0.021 | [6] 0.029 | [7] -0.043 | [8] -0.007 | [9] 0.078 | entinostat 0.013 | vorinostat 0.062 | citarinostat 0 | silmitasertib -0.031 | [10] 0.046 | [11] -0.035

MRPL13 (UniProt Q9BYD1)
inactive: bafetinib 0.085 | [1] 0.069 | nilotinib -0.271 | [2] 0.07 | dasatinib 0.044 | [3] -0.037 | [4] -0.087 | [5] -0.021 | tipifarnib 0.089 | mubritinib -0.03 | [6] 0.044 | [7] 0.039 | [8] -0.026 | [9] 0.156 | entinostat 0 | vorinostat 0.038 | citarinostat -0.007 | silmitasertib -0.085 | [10] 0.058 | [11] -0.076

MICAL3 (UniProt Q7RTP6)
inactive: bafetinib -0.054 | [1] -0.077 | nilotinib 0.023 | [2] -0.061 | dasatinib -0.109 | [3] -0.011 | [4] 0.041 | [5] 0.079 | tipifarnib 0.075 | mubritinib 0.121 | [6] -0.1 | [7] -0.092 | [8] -0.087 | [9] -0.058 | entinostat 0.005 | vorinostat 0.009 | citarinostat 0.037 | silmitasertib 0.011 | [10] -0.012 | [11] -0.04

MLLT1 (UniProt Q03111)
inactive: bafetinib -0.154 | [1] -0.043 | nilotinib -0.024 | [2] 0.038 | dasatinib -0.049 | [3] -0.091 | [4] -0.069 | [5] 0.099 | tipifarnib -0.017 | mubritinib 0.009 | [6] 0.007 | [7] -0.032 | [8] -0.001 | [9] -0.332 | entinostat -0.032 | vorinostat 0.073 | citarinostat -0.014 | silmitasertib 0.051 | [10] 0.113 | [11] -0.067

MOB1B isoform 2 (UniProt Q7L9L4)
inactive: bafetinib -0.039 | [1] -0.012 | nilotinib 0.012 | [2] -0.033 | dasatinib 0.01 | [3] -0.015 | [4] 0.043 | [5] -0.004 | tipifarnib -0.006 | mubritinib 0.081 | [6] -0.037 | [7] -0.02 | [8] -0.05 | [9] -0.044 | entinostat 0.01 | vorinostat 0.004 | citarinostat 0.039 | silmitasertib 0.026 | [10] -0.023 | [11] -0.077

MIER1 isoform 12 (UniProt Q8N108)
active: entinostat 0.292 | vorinostat 0.28 | citarinostat 0.273
inactive: bafetinib -0.016 | [1] 0.031 | nilotinib 0.012 | [2] -0.083 | dasatinib -0.028 | [3] -0.061 | [4] 0.056 | [5] -0.041 | tipifarnib -0.004 | mubritinib 0.052 | [6] -0.026 | [7] -0.03 | [8] -0.074 | [9] -0.025 | silmitasertib -0.017 | [10] -0.066 | [11] -0.061
